These results are taken from paper PMC10184828.

The target in assay [1] is Sec12C, the N-terminal cytosolic domain of Sec12 (binding domain-fused) (S. cerevisiae). In words: two-hybrid; Gal4 activation domain-fused Sec16 fragments (pGAD-C1) with Gal4 DNA-binding domain-fused Sec23, Sed4C, Sec12C or Sec12C chimeras (pGBDU-C1); growth on plates lacking histidine, leucine and uracil at 30°C for 4 days.
For assay [2], the target named is Sec12C4b1-2 (binding domain-fused) (S. cerevisiae). Described as above.
Assay [3] deals with Sec12C4b1-3 (binding domain-fused) (S. cerevisiae). Described as above.
Assay [4] deals with Sec12C4b1-5 (binding domain-fused) (S. cerevisiae). The description is as above.
For assay [5], the target named is Sec12C4b2-3 (binding domain-fused) (S. cerevisiae). The assay is described as above.
The target in assay [6] is Sed4C, the N-terminal cytosolic domain of Sed4 (binding domain-fused) (S. cerevisiae). Described as above.
For assay [7], the target named is Sed4^ΔC–Flag (S. cerevisiae). In words: co-IP; octylglucoside-solubilized extracts of sed4Δ cells (or sed4Δ sec16Δ cells expressing Sec16 or Sec16^ΔS4B); immunoprecipitation with anti-Flag (anti-DDDDK) antibody, blot with anti-Flag and anti-V5; 25 mM HEPES pH 8.0, 150 mM NaCl, 1 mM EDTA, 5% glycerol, 4°C.
Assay [8] addresses Sed4^ΔL–Flag (S. cerevisiae). The description is as above.

No constants are given. Whether binding was seen depends on the method and setting. For part of these data: Binding can be weak; no strength is given. Sequences can lack the tags named with a protein. For part of these data: In cells and extracts the contact can be indirect.

B1: Sec16 fragment 1856–2195 (activation domain-fused) (domain or fragment, UniProt P48415 1856-2195)
chain: STDATKMNYSPYVPQSTAASADGDESTILKTSPAIYARTHQAHASNPSQYFPLVNQANETASFELSESTSQAQSNGNVASENRFSPIKKAEVVEKDTFQPTIRKASTNQYRAFKPLESDADKYNDVIEDESDDDNMSTDEAKNRKEEKKNVNMKKETKPSNKDIDDKSNGWFGWLKKDTGDKKVYKAKLGHKNTLYYDEKLKRWVNKDATEEEKQKIIESSAPPPPPIVKRKDGGPKTKPRSGPINNSLPPVHATSVIPNNPITGEPLPIKTSPSPTGPNPNNSPSPSSPISRISGVNLTSKKANGLDDLLSLAGGPKPASTRRKKKTARGYVNVMDNIQ
In the case of B1, the binding result in assay [1] was “no binding”; in assay [2], “no binding”; in assay [3], “binds”; in assay [4], “binds”; in assay [5], “no binding”; in assay [6], “binds”.

B2: Sec16 fragment 1639–2195 (activation domain-fused) (domain or fragment, UniProt P48415 1639-2195)
chain: MYSPSVEALPIDPVVPQVHETGYNDFGNKHSQKSMPEDESHTSHDNSNADQNTLKDSADVTDETMDIEGPGFNDVKNLLPMEPNHQPTSTVNPIQTISDDIQPILQTNVEVRGTDASKMENSLPSIENERSSEEQPENISKSASSAYLPSTGGLSLENRPLTQDENSISETVQSTYLPAGSISMEAKPISQVQDVPRNVNNKASKLVEQHMAPPKPKSTDATKMNYSPYVPQSTAASADGDESTILKTSPAIYARTHQAHASNPSQYFPLVNQANETASFELSESTSQAQSNGNVASENRFSPIKKAEVVEKDTFQPTIRKASTNQYRAFKPLESDADKYNDVIEDESDDDNMSTDEAKNRKEEKKNVNMKKETKPSNKDIDDKSNGWFGWLKKDTGDKKVYKAKLGHKNTLYYDEKLKRWVNKDATEEEKQKIIESSAPPPPPIVKRKDGGPKTKPRSGPINNSLPPVHATSVIPNNPITGEPLPIKTSPSPTGPNPNNSPSPSSPISRISGVNLTSKKANGLDDLLSLAGGPKPASTRRKKKTARGYVNVMDNIQ
With B2, the figures for the binding entry in assay [1] and in assay [6] were “no binding” and “binds”, respectively.

B3: Sec16 fragment 1968–2195 (activation domain-fused) (domain or fragment, UniProt P48415 1968-2195)
chain: FKPLESDADKYNDVIEDESDDDNMSTDEAKNRKEEKKNVNMKKETKPSNKDIDDKSNGWFGWLKKDTGDKKVYKAKLGHKNTLYYDEKLKRWVNKDATEEEKQKIIESSAPPPPPIVKRKDGGPKTKPRSGPINNSLPPVHATSVIPNNPITGEPLPIKTSPSPTGPNPNNSPSPSSPISRISGVNLTSKKANGLDDLLSLAGGPKPASTRRKKKTARGYVNVMDNIQ
For B3, the binding result in assay [1] and in assay [6] was “no binding” throughout.

B4: Sec16 fragment 1639–2195 Δ1856–1967 (activation domain-fused) (domain or fragment, UniProt P48415)
chain: MYSPSVEALPIDPVVPQVHETGYNDFGNKHSQKSMPEDESHTSHDNSNADQNTLKDSADVTDETMDIEGPGFNDVKNLLPMEPNHQPTSTVNPIQTISDDIQPILQTNVEVRGTDASKMENSLPSIENERSSEEQPENISKSASSAYLPSTGGLSLENRPLTQDENSISETVQSTYLPAGSISMEAKPISQVQDVPRNVNNKASKLVEQHMAPPKPKFKPLESDADKYNDVIEDESDDDNMSTDEAKNRKEEKKNVNMKKETKPSNKDIDDKSNGWFGWLKKDTGDKKVYKAKLGHKNTLYYDEKLKRWVNKDATEEEKQKIIESSAPPPPPIVKRKDGGPKTKPRSGPINNSLPPVHATSVIPNNPITGEPLPIKTSPSPTGPNPNNSPSPSSPISRISGVNLTSKKANGLDDLLSLAGGPKPASTRRKKKTARGYVNVMDNIQ
Turning to B4, the binding entry in assay [1] and in assay [6] was “no binding” in each case.

B5: Sec16 fragment 1639–1967 (activation domain-fused) (domain or fragment, UniProt P48415 1639-1967)
chain: MYSPSVEALPIDPVVPQVHETGYNDFGNKHSQKSMPEDESHTSHDNSNADQNTLKDSADVTDETMDIEGPGFNDVKNLLPMEPNHQPTSTVNPIQTISDDIQPILQTNVEVRGTDASKMENSLPSIENERSSEEQPENISKSASSAYLPSTGGLSLENRPLTQDENSISETVQSTYLPAGSISMEAKPISQVQDVPRNVNNKASKLVEQHMAPPKPKSTDATKMNYSPYVPQSTAASADGDESTILKTSPAIYARTHQAHASNPSQYFPLVNQANETASFELSESTSQAQSNGNVASENRFSPIKKAEVVEKDTFQPTIRKASTNQYRA
B5: the binding result in assay [1] and in assay [6] was “no binding” each time.

B6: Sed4–V5 (protein, UniProt P25365 1-1065)
chain: MSGNSANYDVGYPIYGAKFINEGTLLVAGGGGQFNSSFPNKITALKVNFQKKKHIRRFREITLDSIDDAPTSLDCNNNLILVGCNELFNDSSMENVNHHLRKFVFEQEHLKFVASIDFNRTTDPSVFTKFVYINQRATVAAIASSEVPTVIRIIDPRNLTENYEIETGREVNDLHFAPNGILLSYITSNSLEVASVRDGNFVARKTDFDKNLVLSNIRFLNDNTLLVAASLSNSDGVSLLKLGVSSKGVKILKTASFMFDLNGITSMDVSPNKKFVALSSNDNLVAIVSVEKLKLVQLVPRVHESTITKVTFSPDSRYLASTSMGNTINVLKLSGTSSSILRNIWKFFLNFVLLVVLAGAIQLGYKHNVHGFIYKHAHDIYKSKFKENTTIDQGSSSYFTINDDYRGITESADIISATDVASDIETEFSSFDTSTMRTTTEDEQKFVWISSSADSQFTSADIPTSASSSSSSSSSSFYEESVTNEPIVSSPTSEITKPLASPTEPNIVEKPSLPLNSESIDLLSSSSNSITEYPEPTPDLEEKLSSLIVEQSESEITTDRESVSKLLSTESPSLSHMPSSSSSSLSLSSSLTTSPTTALSTSTATAVTTTQTNPTNDAANTSFLDNSKPASTREIYKTKIITEVITKIEYRNIPASDSNAEAEQYVTTSSSMLLTPTDTMVSSPVSEIDPIASELERMVETPTHSISIASEFDSVASNLIPNEEILSTSASQDSISSHPSTFSDSSITSGFQSIEVSTVTSSVLASESIPSISDSTFSKFHSISEPVSSAIVETATSSFSKTETKTSRVIAFSTEDSERSSALIDNSEYTSVLADNLEPTSVLADNSEPTSVLADSSEPTSVFTDAVQSPKTSVGQSSLSESTNIEGTSMASMIFSSSGASIGALSDIGKGTLSVESASSTVAQPMPGVTTTAPSFVSSPHKISASSIDASGFVQKEIMIEVQSSKDSSEAFGVRHKISENVNTPVSRMLTTEMQASGTVDVTEDVSLSSEVISALNVEITSLPNPVAPPQTIAAPLNNNSNTNIVNDDNAVAGTVNYAGLHDEL
For the molecule B6, the binding entry in assay [7] and in assay [8] was “no binding” in each case.

B7: Sec16 fragment 1639–1996 (activation domain-fused) (domain or fragment, UniProt P48415 1639-1996)
chain: MYSPSVEALPIDPVVPQVHETGYNDFGNKHSQKSMPEDESHTSHDNSNADQNTLKDSADVTDETMDIEGPGFNDVKNLLPMEPNHQPTSTVNPIQTISDDIQPILQTNVEVRGTDASKMENSLPSIENERSSEEQPENISKSASSAYLPSTGGLSLENRPLTQDENSISETVQSTYLPAGSISMEAKPISQVQDVPRNVNNKASKLVEQHMAPPKPKSTDATKMNYSPYVPQSTAASADGDESTILKTSPAIYARTHQAHASNPSQYFPLVNQANETASFELSESTSQAQSNGNVASENRFSPIKKAEVVEKDTFQPTIRKASTNQYRAFKPLESDADKYNDVIEDESDDDNMSTDEA
As to B7, the binding entry in assay [1] is given as “no binding”; in assay [6], “binds”.
